Results published in patent US20260364175A1, “COMPOSITIONS FOR DRUG ADMINISTRATION” (Aegis Therapeutics, LLC, priority 2018, published 2026).

What was measured:
[1] = fast-dispersing tablets 50 mg with 1% to 2% alkylsaccharide
[2] = oral doses; cited from earlier work

Q: What does the source list for `CN(C)CCOC(c1ccccc1)c1ccccc1` [Diphenhydramine]?
A: first-pass metabolism [1]: less first-pass metabolism; time to peak plasma concentrations [2]: 1 to 4 h
